Screening data, single-dose tests

By UniProt entry, the sequences of proteins in these tests, tags left out. Residues count along the entry.
UniProt A4I591, 1-473: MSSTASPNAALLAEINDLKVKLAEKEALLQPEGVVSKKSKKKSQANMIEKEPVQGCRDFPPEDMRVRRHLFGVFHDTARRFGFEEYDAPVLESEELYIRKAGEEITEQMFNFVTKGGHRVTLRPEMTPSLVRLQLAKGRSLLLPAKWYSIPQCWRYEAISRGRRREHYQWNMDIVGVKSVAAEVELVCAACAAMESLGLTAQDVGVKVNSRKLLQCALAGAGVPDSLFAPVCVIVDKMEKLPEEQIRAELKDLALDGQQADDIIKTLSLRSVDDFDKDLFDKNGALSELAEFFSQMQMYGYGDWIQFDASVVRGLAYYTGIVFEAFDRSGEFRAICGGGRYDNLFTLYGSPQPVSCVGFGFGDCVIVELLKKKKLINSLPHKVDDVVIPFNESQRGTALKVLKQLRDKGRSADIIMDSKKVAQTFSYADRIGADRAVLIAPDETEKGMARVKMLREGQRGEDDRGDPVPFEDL

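Enzyme assay of histidyl-tRNA synthetase; the read-out is not stated. Target: Histidine-tRNA ligase, Leishmania infantum (UniProt A4I591). Compounds at 30 µM. Higher reads as stronger inhibition (inferred: compounds with an IC50 in retests scored well above the rest). The assay is labelled LdHisRS but filed under L. infantum. Of about 69,000 compounds tested this way, about 410 (0.6%) reached 50% or more in at least one test.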

Each number is a percent effect as filed.
How 0% and 100% were set is not recorded. Most values in the screen are low, and negative values occur.
Compounds were drawn at random from those tested, without regard to their results.

* O=C(O)CCCC(=O)NCC1(O)CCN(c2ccnc3cccnc23)C1 (centres undefined) | 8.696%
* Cc1csc(C2CCCCN2C(=O)c2c[nH]c(C)n2)n1 (centres undefined) | 3.846%
* O=C(NCCCn1ccnc1)C1CCC(=O)N1Cc1cccs1 (centres undefined) | 17.24%
* COCC(NC(=O)c1cc(C)n(C)n1)c1cccc(C(F)(F)F)c1 (centres undefined) | 5.882%
* CC(C)(C)OC(=O)N1CCC(C(=O)NCCNc2ncccn2)CC1 | 14.29%
* CN(C)S(=O)(=O)N1CCCC(c2cccc(Cc3ccccc3)n2)C1 (centres undefined) | 5.714%
* O=C(CCNS(=O)(=O)c1cccnc1)N1CCOC(c2ccccc2)C1 (centres undefined) | 1.587%
* O=C(c1cc2c([nH]c1=O)CCC2)N1CCCC1c1ccccc1 (centres undefined) | 18.18%
* O=C1C(Sc2cnn[nH]2)CCCN1c1ccccc1F (centres undefined) | 15.49%
* Cc1ccsc1C(=O)N1CC(C(=O)N2CCCC2)C2(CCOCC2)C1 (centres undefined) | 4.425%
* CCC1COCCN1C(=O)CNC(=O)c1ccc2c(c1)CCC2 (centres undefined) | 13.33%
* CNC(=O)C1CN(C(C)C)CCN1c1ncccn1 (centres undefined) | 8.571%
* FC(F)(F)CCN(Cc1ccon1)C1CCC1 | -8.036%
* CCn1ncc2c1NC(=O)C(C#N)C21CCCC1 (centres undefined) | 17.54%
* O=C(c1ccsc1)N1CC[C@@H](N2CCOCC2)[C@@H]1Cc1ccccc1 | 10.91%
* CC(C)NC(=O)N1CCC2(COCc3cnc(-c4cccnc4)nc32)C1 (centres undefined) | 6.015%
* CS(=O)(=O)c1cc(NC(=O)COc2ccccc2F)cc(C(=O)O)c1 | 14.46%
* Cc1ccc(NC2CCN(C(=O)c3cc(C)sc3C)CC2)nn1 | 15.52%
* COCc1cnc2n1CCN(C1CCCC1)C2C (centres undefined) | 33.33%
* CNS(=O)(=O)c1cccc(CNC(=O)c2c(C)oc(C)c2C)c1 | 21.62%
* CN1CCCC1CCn1ccnc1-c1nc2ccccc2[nH]1 (centres undefined) | 14.67%
* CC(C)Cc1cc(CNc2nc(-c3cccnc3)nc3c2CNC3)no1 | 14.29%
* COc1c(NS(=O)(=O)c2ccc(F)c(C)c2)c(C)nn1C | 12.12%
* Cc1ccc(F)c2c1CCCN2CC(=O)NC1CCS(=O)(=O)C1 (centres undefined) | 27.06%
* CCC(NC1CSCCSC1)c1ccc(S(C)(=O)=O)cc1 (centres undefined) | 6.993%
* CN(C)c1ncc(-c2cncn2CCc2ccc3c(c2)OCCO3)cn1 | 14.29%
* Cc1cc(CNc2ccc3nc(C)sc3c2)no1 | 58.62%
* O=C(NCCN1CCCS1(=O)=O)c1scnc1Cl | 9.649%
* CN(C)Cc1nnc2n1CCCN(C(=O)c1c[nH]cn1)C2 | 15.04%
* COc1c(C(=O)N2CCOCC2)cnc2c1c(C)nn2C | -27.72%
* Cc1ccc(C)n1C(C)C(=O)N1CCCN(Cc2cscn2)CC1 (centres undefined) | 14.68%
* CNC(=O)c1cc(NC(=O)NC2CC2)ccc1F | 18.92%
* c1ccc(COC2CCN(Cc3cc4n(n3)CCCNC4)CC2)nc1 | 23.08%
* CN(CCc1ccccn1)c1cnn(C)c(=O)c1Br | 13.25%
* CCS(=O)(=O)NCC(=O)N1CCC(c2cc3ccccc3[nH]2)CC1 | 15.93%
* CN(C)C(=O)CN1CCCC(c2nccnc2-c2cccc(Cl)c2)C1 (centres undefined) | 2.797%
* Cc1cnn(CC2CCN(CC(O)Cn3cccn3)CC2)c1 (centres undefined) | 3.333%
* COCCNC(=O)C[C@@H]1COC[C@H]2CN(C(=O)C3CCOCC3)C[C@@H]12 | -4.505%
* COc1ccc2ncn(Cc3ncc[nH]3)c(=O)c2c1 | 30.12%
* c1cnc(N2CCO[C@H]3[C@H](OCCN4CCCC4)CC[C@@H]32)nc1 | 17.54%
* CCC(CC)Cn1ncc(N2CCOCC2)cc1=O | 14.29%
* CC(C)C(NC(=O)C1CC1)c1cc(O)nc(-c2cccnc2)n1 (centres undefined) | 4.196%
* Cc1ccc(C(CCNCCCN(C)C)C2CCOC(C)(C)C2)cc1 (centres undefined) | 14.58%
* CCCn1cc(Cl)c(C(=O)N2C[C@H]3C[C@H](OC)C[C@H]3C2)n1 | 8.633%
* CC(C)(C)C(=O)NCCn1ccc(-c2ccncc2)n1 | 9.615%
* CCC(=O)NC1CCCN(Cc2ccc(-n3ccnc3)cc2)C1 (centres undefined) | 10.26%
* CCn1nc(C)c2nc(C)nc(NCCc3ccc(C)cc3)c21 | 25.81%
* Cn1cc(CN2CCCN(C(=O)c3ccc4c(c3)COC4)CC2)cn1 | 16.67%
* CO[C@H]1CN(Cc2cc(F)ccc2F)CC[C@@]12CCCO2 | 15.94%
* CC(C)Cc1nc(CCn2cncn2)n(-c2ccc3c(c2)OCCO3)n1 | 14.29%
* CC(Oc1cc(Cl)cc(Cl)c1)C(=O)NCCS(N)(=O)=O (centres undefined) | 4.762%

Repeated from the top, 5 entries:

compound	Percent Effect
O=C(O)CCCC(=O)NCC1(O)CCN(c2ccnc3cccnc23)C1 (centres undefined)	8.696%
Cc1csc(C2CCCCN2C(=O)c2c[nH]c(C)n2)n1 (centres undefined)	3.846%
O=C(NCCCn1ccnc1)C1CCC(=O)N1Cc1cccs1 (centres undefined)	17.24%
COCC(NC(=O)c1cc(C)n(C)n1)c1cccc(C(F)(F)F)c1 (centres undefined)	5.882%
CC(C)(C)OC(=O)N1CCC(C(=O)NCCNc2ncccn2)CC1	14.29%

The values are deposited in ChEMBL (CHEMBL3988442, “University of Dundee, Small-Polar-MMV Screening Library” (2021)).